Data from PMC9652321, “Structural basis of human SNAPc recognizing proximal sequence element of snRNA promoter”.
These are yes or no findings as the source states them, for the method shown. For some assays here: In cells and extracts the contact can be indirect. Some entries that bind do so weakly or less than the wild type. Sequences can lack the tags named with a protein.

How the values were obtained:
[1] = target: T1, SNAP190 (residues 1-505), N-terminal FLAG tagged (human) (UniProt Q5SXM2); experiment: cryo-EM structure; 6.7 μM mSNAPc#2 incubated with 35 bp human U6-1 PSE dsDNA at 1:2.5 molar ratio, 100 mM KCl, 25 mM HEPES K+ pH 7.6, 12.5 mM MgCl2, 10 μM ZnCl2, 30 min at 4 °C; 3.49 Å; both purified
T1 sequence: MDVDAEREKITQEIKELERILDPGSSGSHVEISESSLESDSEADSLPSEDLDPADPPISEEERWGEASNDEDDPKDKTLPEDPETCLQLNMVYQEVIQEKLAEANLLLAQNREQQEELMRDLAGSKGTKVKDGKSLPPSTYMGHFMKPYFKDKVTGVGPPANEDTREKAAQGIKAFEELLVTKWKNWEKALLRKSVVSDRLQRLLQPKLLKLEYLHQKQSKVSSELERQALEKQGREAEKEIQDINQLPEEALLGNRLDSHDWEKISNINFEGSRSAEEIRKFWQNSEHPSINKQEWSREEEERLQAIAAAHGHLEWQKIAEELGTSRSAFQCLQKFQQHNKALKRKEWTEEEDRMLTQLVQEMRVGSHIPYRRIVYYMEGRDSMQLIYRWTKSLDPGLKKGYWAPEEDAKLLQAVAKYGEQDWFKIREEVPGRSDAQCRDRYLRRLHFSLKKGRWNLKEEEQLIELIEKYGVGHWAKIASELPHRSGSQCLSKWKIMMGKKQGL

[2] = target: T1, SNAP190 (residues 1-505), N-terminal FLAG tagged (human); experiment: SEC; subunits co-expressed in Sf9 cells (mSNAPc#1, mSNAPc#2), anti-FLAG M2 affinity by FLAG-SNAP190(1-505), then Superose 6 increase gel filtration, 4 °C, 100 mM KCl, 25 mM HEPES K+ pH 7.6; both purified
[3] = target: T2, SNAP190^(140-505) (extreme NTD deletion), N-terminal FLAG tag (human) (UniProt Q5SXM2); experiment: co-IP; truncated subunits co-expressed in Sf9 cells (mSNAPc#3 to #9); lysate supernatant on anti-FLAG M2 resin (bait FLAG-SNAP190 constructs), eluted with 500 μM FLAG peptide; Western blot against FLAG, Strep and TEV cleavage site
T2 sequence: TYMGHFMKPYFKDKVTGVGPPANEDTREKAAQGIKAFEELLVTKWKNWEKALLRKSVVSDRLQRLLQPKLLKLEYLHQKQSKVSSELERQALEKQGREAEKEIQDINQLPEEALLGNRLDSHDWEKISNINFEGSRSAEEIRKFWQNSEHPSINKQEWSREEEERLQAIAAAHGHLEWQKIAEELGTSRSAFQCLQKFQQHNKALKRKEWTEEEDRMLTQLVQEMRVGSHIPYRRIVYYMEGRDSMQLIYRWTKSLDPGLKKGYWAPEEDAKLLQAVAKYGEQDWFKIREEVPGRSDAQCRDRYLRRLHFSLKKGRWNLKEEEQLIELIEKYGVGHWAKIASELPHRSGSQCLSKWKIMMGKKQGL

[4] = target: T3, SNAP50^(1-351) (wedge domain deletion), N-terminal Strep tag (human) (UniProt Q92966); experiment: as above
T3 sequence: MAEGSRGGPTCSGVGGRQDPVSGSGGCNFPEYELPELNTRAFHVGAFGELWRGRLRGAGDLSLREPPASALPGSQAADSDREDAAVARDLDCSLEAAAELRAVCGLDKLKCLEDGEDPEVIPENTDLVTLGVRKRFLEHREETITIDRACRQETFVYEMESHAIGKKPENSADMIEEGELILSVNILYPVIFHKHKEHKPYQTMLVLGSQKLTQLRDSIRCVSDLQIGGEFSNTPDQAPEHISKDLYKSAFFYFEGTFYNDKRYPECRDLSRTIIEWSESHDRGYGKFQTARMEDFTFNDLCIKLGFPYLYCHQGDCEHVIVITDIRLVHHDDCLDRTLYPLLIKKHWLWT

[5] = target: T4, SNAP50^(1-411) (full length), N-terminal Strep tag (human) (UniProt Q92966); experiment: as above
T4 sequence: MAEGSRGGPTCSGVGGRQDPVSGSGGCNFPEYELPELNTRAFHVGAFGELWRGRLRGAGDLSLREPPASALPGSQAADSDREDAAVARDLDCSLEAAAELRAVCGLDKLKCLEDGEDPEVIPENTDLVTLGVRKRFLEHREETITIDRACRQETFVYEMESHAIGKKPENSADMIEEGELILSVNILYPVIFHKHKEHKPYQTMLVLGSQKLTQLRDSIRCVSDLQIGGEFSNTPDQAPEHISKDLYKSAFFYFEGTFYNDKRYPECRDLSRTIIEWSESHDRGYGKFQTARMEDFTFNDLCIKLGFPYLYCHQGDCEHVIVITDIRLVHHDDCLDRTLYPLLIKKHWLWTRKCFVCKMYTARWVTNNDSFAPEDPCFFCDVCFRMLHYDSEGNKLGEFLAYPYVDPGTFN

[6] = target: T5, Strep tagged full-length SNAP19 (human) (UniProt O75971); experiment: SEC; rod module mSNAPc#11 co-expressed in E. coli; Strep-Tactin resin by Strep-SNAP19, then Superose 6 increase column, 4 °C, 150 mM NaCl, 20 mM HEPES Na+ pH 7.5; both purified
T5 sequence: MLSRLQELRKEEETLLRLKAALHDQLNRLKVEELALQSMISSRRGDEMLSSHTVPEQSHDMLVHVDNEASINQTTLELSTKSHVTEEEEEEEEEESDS

[7] = target: T6, MBP tagged SNAP190 (residues 1-143) (human) (UniProt Q5SXM2); experiment: as above
T6 sequence: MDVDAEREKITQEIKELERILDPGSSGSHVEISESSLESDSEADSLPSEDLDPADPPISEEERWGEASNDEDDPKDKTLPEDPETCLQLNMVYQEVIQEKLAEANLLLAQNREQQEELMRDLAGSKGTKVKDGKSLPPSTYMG

SNAP50, untagged (human) = target: T7, SNAP50, untagged (human) (UniProt Q92966); experiment: cryo-EM structure; 6.7 μM mSNAPc#2 incubated with 35 bp human U6-1 PSE dsDNA at 1:2.5 molar ratio, 100 mM KCl, 25 mM HEPES K+ pH 7.6, 12.5 mM MgCl2, 10 μM ZnCl2, 30 min at 4 °C; 3.49 Å; both purified
T7 sequence: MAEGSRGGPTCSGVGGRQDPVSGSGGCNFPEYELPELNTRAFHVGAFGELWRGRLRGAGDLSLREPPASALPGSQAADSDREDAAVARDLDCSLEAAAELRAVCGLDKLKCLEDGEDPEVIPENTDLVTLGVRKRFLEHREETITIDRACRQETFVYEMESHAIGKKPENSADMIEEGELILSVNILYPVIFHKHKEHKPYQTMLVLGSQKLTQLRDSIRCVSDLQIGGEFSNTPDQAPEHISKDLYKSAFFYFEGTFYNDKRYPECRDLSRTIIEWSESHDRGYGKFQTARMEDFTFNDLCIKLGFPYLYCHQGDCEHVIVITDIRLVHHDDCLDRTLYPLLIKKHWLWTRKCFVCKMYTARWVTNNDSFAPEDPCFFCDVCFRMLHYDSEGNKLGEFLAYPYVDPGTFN

Row | Binder | binding [2] | binding [3] | further results
1 | SNAP50, untagged (protein, UniProt Q92966 1-411) MAEGSRGGPTCSGVGGRQDPVSGSGGCNFPEYELPELNTRAFHVGAFGELWRGRLRGAGDLSLREPPASALPGSQAADSDREDAAVARDLDCSLEAAAELRAVCGLDKLKCLEDGEDPEVIPENTDLVTLGVRKRFLEHREETITIDRACRQETFVYEMESHAIGKKPENSADMIEEGELILSVNILYPVIFHKHKEHKPYQTMLVLGSQKLTQLRDSIRCVSDLQIGGEFSNTPDQAPEHISKDLYKSAFFYFEGTFYNDKRYPECRDLSRTIIEWSESHDRGYGKFQTARMEDFTFNDLCIKLGFPYLYCHQGDCEHVIVITDIRLVHHDDCLDRTLYPLLIKKHWLWTRKCFVCKMYTARWVTNNDSFAPEDPCFFCDVCFRMLHYDSEGNKLGEFLAYPYVDPGTFN | binds | – | binding [1]: binds
2 | SNAP50^(1-351) (wedge domain deletion), N-terminal Strep tag (domain or fragment, UniProt Q92966 1-351) MAEGSRGGPTCSGVGGRQDPVSGSGGCNFPEYELPELNTRAFHVGAFGELWRGRLRGAGDLSLREPPASALPGSQAADSDREDAAVARDLDCSLEAAAELRAVCGLDKLKCLEDGEDPEVIPENTDLVTLGVRKRFLEHREETITIDRACRQETFVYEMESHAIGKKPENSADMIEEGELILSVNILYPVIFHKHKEHKPYQTMLVLGSQKLTQLRDSIRCVSDLQIGGEFSNTPDQAPEHISKDLYKSAFFYFEGTFYNDKRYPECRDLSRTIIEWSESHDRGYGKFQTARMEDFTFNDLCIKLGFPYLYCHQGDCEHVIVITDIRLVHHDDCLDRTLYPLLIKKHWLWT | – | binds | –
3 | SNAP43^(1-150), N-terminal His-TEV tagged NTD domain of SNAP43 (domain or fragment, UniProt Q16533 1-150) MGTPPGLQTDCEALLSRFQETDSVRFEDFTELWRNMKFGTIFCGRMRNLEKNMFTKEALALAWRYFLPPYTFQIRVGALYLLYGLYNTQLCQPKQKIRVALKDWDEVLKFQQDLVNAQHFDAAYIFRKLRLDRAFHFTAMPKLLSYRMKK | – | – | binding [4]: binds; binding [5]: binds
4 | SNAP50^(141-411) (lasso domain deletion), N-terminal Strep tag (domain or fragment, UniProt Q92966 141-411) EETITIDRACRQETFVYEMESHAIGKKPENSADMIEEGELILSVNILYPVIFHKHKEHKPYQTMLVLGSQKLTQLRDSIRCVSDLQIGGEFSNTPDQAPEHISKDLYKSAFFYFEGTFYNDKRYPECRDLSRTIIEWSESHDRGYGKFQTARMEDFTFNDLCIKLGFPYLYCHQGDCEHVIVITDIRLVHHDDCLDRTLYPLLIKKHWLWTRKCFVCKMYTARWVTNNDSFAPEDPCFFCDVCFRMLHYDSEGNKLGEFLAYPYVDPGTFN | – | binds | –
5 | MBP tagged SNAP190 (residues 1-143) (domain or fragment, UniProt Q5SXM2 1-143) MDVDAEREKITQEIKELERILDPGSSGSHVEISESSLESDSEADSLPSEDLDPADPPISEEERWGEASNDEDDPKDKTLPEDPETCLQLNMVYQEVIQEKLAEANLLLAQNREQQEELMRDLAGSKGTKVKDGKSLPPSTYMG | – | – | binding [6]: binds
6 | SNAP43 (residues 148-268) with N-terminal MBP tag (domain or fragment, UniProt Q16533 148-268) MKKKIHRAEVTEEFKDPSDRVMKLITSDVLEEMLNVHDHYQNMKHVISVDKSKPDKALSLIKDDFFDNIKNIVLEHQQWHKDRKNPSLKSKTNDGEEKMEGNSQETERCERAESLAKIKSK | – | – | binding [7]: binds; binding [6]: binds
7 | SNAP43 (residues 1-268), N-terminal 6xHis tagged (domain or fragment, UniProt Q16533 1-268) MGTPPGLQTDCEALLSRFQETDSVRFEDFTELWRNMKFGTIFCGRMRNLEKNMFTKEALALAWRYFLPPYTFQIRVGALYLLYGLYNTQLCQPKQKIRVALKDWDEVLKFQQDLVNAQHFDAAYIFRKLRLDRAFHFTAMPKLLSYRMKKKIHRAEVTEEFKDPSDRVMKLITSDVLEEMLNVHDHYQNMKHVISVDKSKPDKALSLIKDDFFDNIKNIVLEHQQWHKDRKNPSLKSKTNDGEEKMEGNSQETERCERAESLAKIKSK | binds | – | binding (SNAP50, untagged (human)): binds
8 | SNAP43 (full-length), N-terminal 6xHis tagged (protein, UniProt Q16533 1-368) MGTPPGLQTDCEALLSRFQETDSVRFEDFTELWRNMKFGTIFCGRMRNLEKNMFTKEALALAWRYFLPPYTFQIRVGALYLLYGLYNTQLCQPKQKIRVALKDWDEVLKFQQDLVNAQHFDAAYIFRKLRLDRAFHFTAMPKLLSYRMKKKIHRAEVTEEFKDPSDRVMKLITSDVLEEMLNVHDHYQNMKHVISVDKSKPDKALSLIKDDFFDNIKNIVLEHQQWHKDRKNPSLKSKTNDGEEKMEGNSQETERCERAESLAKIKSKAFSVVIQASKSRRHRQVKLDSSDSDSASGQGQVKATRKKEKKERLKPAGRKMSLRNKGNVQNIHKEDKPLSLSMPVITEEEENESLSGTEFTASKKRRKH | binds | – | –
9 | SNAP19, untagged (protein, UniProt O75971 1-98) MLSRLQELRKEEETLLRLKAALHDQLNRLKVEELALQSMISSRRGDEMLSSHTVPEQSHDMLVHVDNEASINQTTLELSTKSHVTEEEEEEEEEESDS | binds | – | –
10 | SNAP50^(1-411) (full length), N-terminal Strep tag (protein, UniProt Q92966 1-411) MAEGSRGGPTCSGVGGRQDPVSGSGGCNFPEYELPELNTRAFHVGAFGELWRGRLRGAGDLSLREPPASALPGSQAADSDREDAAVARDLDCSLEAAAELRAVCGLDKLKCLEDGEDPEVIPENTDLVTLGVRKRFLEHREETITIDRACRQETFVYEMESHAIGKKPENSADMIEEGELILSVNILYPVIFHKHKEHKPYQTMLVLGSQKLTQLRDSIRCVSDLQIGGEFSNTPDQAPEHISKDLYKSAFFYFEGTFYNDKRYPECRDLSRTIIEWSESHDRGYGKFQTARMEDFTFNDLCIKLGFPYLYCHQGDCEHVIVITDIRLVHHDDCLDRTLYPLLIKKHWLWTRKCFVCKMYTARWVTNNDSFAPEDPCFFCDVCFRMLHYDSEGNKLGEFLAYPYVDPGTFN | – | binds | –
